Results taken from PMC9044549 (RSC Advances, 2021).

Tested on: MCF-7 breast cancer cells
Experiment: In vitro anti-proliferative activity, MTT assay
Type: cell-based
Conditions: Homo sapiens, MCF7, read-out: In vitro anti-proliferative activities MCF-7 IC50

IC50: 10.4 ± 0.3 µM
Structure (SMILES): COc1cc2c(c(OC)c1OC)-c1ccc(OC)c(=O)cc1[C@@H](NC(C)=O)CC2 [Colchicine, colchicine, reference compound]
